Measured values as given in the supplement of paper PMC10735217.
Structures can show the parent of a compound that is named as a salt. This is one part of the list. Single values are uncertain here, since repeats match poorly.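 In a drug-repurposing library screen, luminescence reads luciferase driven by eight TEAD-binding elements, stably integrated into human kidney-derived cells. Compounds scoring over five robust Z scores above the plate mean are called hits.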

Test system: HEK293A TEAD-LUC reporter
Experiment: TEAD-luciferase reporter activity (YAP activation), robust Z score vs plate; higher = stronger YAP/TEAD activation
Details: 24 h

Compound	TEAD-luciferase reporter activity (compound concentration: 200 nM)	TEAD-luciferase reporter activity (compound concentration: 2 uM)	TEAD-luciferase reporter activity (compound concentration: 10 uM)
CC(C)NCC1CCc2cc(CO)c([N+](=O)[O-])cc2N1 (configuration not stated) [Oxamniquine]	inactive: -0.365	inactive: 2.28	inactive: 0.829
O=C(O)c1cnc(Nc2cccc(Cl)c2)nc1C(F)(F)F	inactive: 0.143	inactive: 0.552	inactive: -1.07
O=C(O)COc1c(F)cc(SCCNS(=O)(=O)c2ccc(Cl)cc2)cc1F	inactive: -0.466	inactive: 0.63	inactive: 0.555
CC(C)COC(=O)OCN1C(=O)CN(CCN2CC(=O)N(COC(=O)OCC(C)C)C(=O)C2)CC1=O [Sobuzoxane]	inactive: 0.499	inactive: 1.68	inactive: 1
CCCCCCCCOc1ccc(NC(=O)C(C)(N)CO)cc1 (configuration not stated)	inactive: -0.177	inactive: -0.756	inactive: 1.71
CCCCCCSc1nsnc1C1=CCCN(C)C1 [Tazomeline]	inactive: -0.604	inactive: 1.53	inactive: 4.12
c1ccc2c(-c3nc4cnccc4[nH]3)c[nH]c2c1	inactive: 3.56		inactive: 1.32
Fc1ccc2c(c1)[nH]c1cc(Cc3cccnc3)ccc12	inactive: -2.16	inactive: -1.46	inactive: 0.196
Cc1nc(N)sc1-c1ccnc(Nc2ccc(N3CCOCC3)cc2)n1	inactive: -0.107	inactive: 0.103	inactive: 0.992
Nc1ccc(C(=O)OCc2cccnc2)cn1	inactive: 3.98	inactive: -0.345	inactive: 0.738
CC1(C)CC(C)(C)c2cc(C#Cc3ccc(C(=O)O)cc3)ccc2O1	inactive: -1.15	inactive: 2.24	inactive: 1.27
CCC(CC)C(NC(C)=O)C1C[C@@H](C(=O)O)C[C@H]1NC(=N)N (some centres not stated)	inactive: 0.289	inactive: -0.286	inactive: -0.805
Cc1nc(Nc2n[nH]c3c2CN(C(=O)N[C@H](CNC(C)C)c2ccccc2)C3(C)C)c2sccc2n1	inactive: -1.89	inactive: -1.94	inactive: -0.838
CCCCC(=O)O[C@]1(C(=O)CO)CC[C@H]2[C@@H]3CCC4=CC(=O)CC[C@]4(C)[C@H]3[C@@H](O)C[C@@]21C [Hydrocortisone valerate]	inactive: -0.765	inactive: 2.12	inactive: 3.46
CC(C)C[C@H](NC(=O)[C@@H](NC(=O)CNC(=O)CN)C(C)C)C(=O)N[C@H](C(=O)N[C@@H](CCC(N)=O)C(=O)N1CCC[C@H]1C(=O)NCC(=O)O)C(C)C [Larazotide acetate]	inactive: -2.33	inactive: -0.48	inactive: -0.359
COc1ccc(/C=C(\C#N)c2cccnc2)cc1OC	inactive: -1.78	inactive: 0.388	inactive: -1.46
CC(=O)[C@@]12O[C@](C)(c3ccccc3)O[C@@H]1CC1C3CCC4=CC(=O)CC[C@]4(C)C3CC[C@@]12C (some centres not stated)	inactive: -1.43	inactive: -0.46	inactive: 1.83
Nc1ncnc2c1ncn2CC(CF)OCP(=O)(O)O (configuration not stated)	inactive: -0.955	inactive: 0.15	inactive: 0.312
CC[C@@H]1/C=C(\C)C[C@H](C)C[C@H](OC)[C@H]2O[C@@](O)(C(=O)C(=O)N3CCCC[C@H]3C(=O)O[C@H](/C(C)=C/[C@@H]3CC[C@H](Cl)[C@H](OC)C3)[C@H](C)[C@@H](O)CC1=O)[C@H](C)C[C@@H]2OC [Pimecrolimus]	inactive: -0.495	inactive: 0.725	inactive: 0.479
COc1ccc2cc(-c3ccc(OCC(O)CNC(C)(C)C)cc3)n(C)c(=O)c2c1 (configuration not stated) [draquinolol]	inactive: -0.497	inactive: 0.333	inactive: 4.37
CC(C)(C)NCC(O)COc1cccc2c1CCC(=O)N2 (configuration not stated) [Carteolol hydrochloride]	inactive: -0.494	inactive: -0.494	inactive: 2.62
N=C(NN)N(N)CC(=O)O	inactive: -1.13		inactive: 0.324
C[N+](C)(C)CCOC(=O)CCCC[C@@H]1CCSS1 [alpha-Lipoic acid choline ester]	inactive: -2.08	inactive: -0.895	inactive: -0.566
O=c1c2c([nH]c3ccccc13)[C@@H](c1ccc3c(c1)CCO3)N(c1ncc(-c3ccccn3)cn1)C2	inactive: -0.931	inactive: 0.753	inactive: 0.124
CCN(CC)Cc1cc(Nc2ccnc3cc(Cl)ccc23)ccc1O [Amodiaquine]	inactive: 1.01	inactive: -0.898	inactive: 0.396
CN1CCC/C1=N\C(=N\c1ccccc1)N1CCOCC1 [Linogliride]	inactive: -0.269	inactive: -1.09	inactive: 2.35
N#Cc1c(N2C[C@@H]3NCCO[C@H]3C2)c(F)cc2c(=O)c(C(=O)O)cn(C3CC3)c12 [Finafloxacin hydrochloride]	inactive: -1.19	inactive: -0.724	inactive: -1.91

Single records, as listed above:
COc1ccc(/C=C(\C#N)c2cccnc2)cc1OC as listed: TEAD-luciferase reporter activity (compound concentration: 200 nM): inactive: -1.78; TEAD-luciferase reporter activity (compound concentration: 2 uM): inactive: 0.388; TEAD-luciferase reporter activity (compound concentration: 10 uM): inactive: -1.46
CCCCCCSc1nsnc1C1=CCCN(C)C1 [Tazomeline] as listed: TEAD-luciferase reporter activity (compound concentration: 200 nM): inactive: -0.604; TEAD-luciferase reporter activity (compound concentration: 2 uM): inactive: 1.53; TEAD-luciferase reporter activity (compound concentration: 10 uM): inactive: 4.12
CCC(CC)C(NC(C)=O)C1C[C@@H](C(=O)O)C[C@H]1NC(=N)N (some centres not stated) as listed: TEAD-luciferase reporter activity (compound concentration: 200 nM): inactive: 0.289; TEAD-luciferase reporter activity (compound concentration: 2 uM): inactive: -0.286; TEAD-luciferase reporter activity (compound concentration: 10 uM): inactive: -0.805

Continued.

Compound	TEAD-luciferase reporter activity (compound concentration: 200 nM)	TEAD-luciferase reporter activity (compound concentration: 2 uM)	TEAD-luciferase reporter activity (compound concentration: 10 uM)
CCN(Cc1cccnc1)C(=O)c1ccc(Cl)c([C@]2(C)C(=O)N(Cc3ccc(OC)cc3OC)c3ccc(Cl)cc32)c1	inactive: -1.7	inactive: -1.17	inactive: -0.934
CN1C(=O)CC[C@H]1C(=O)NCc1cccc(C(F)(F)F)c1Cl	inactive: 0.228	inactive: -0.763	inactive: 0.0356
C[N+](C)(C)CCOC(=O)CCC(=O)OCC[N+](C)(C)C [Suxamethonium chloride]	inactive: -2.74	inactive: -0.703	inactive: -1.27
COc1cccc(-c2ccc(CN3CCCC(NC(=O)c4ccc(Cl)cc4)C3)cc2)c1 (configuration not stated)	inactive: 1.98		inactive: -0.142
O=C(C1CCCN(c2nc3ncccc3o2)C1)N1CCCC1 (configuration not stated)	inactive: 0.12		inactive: -0.873
Cc1ccc(C(=O)C(C)CN2CCCC2)cc1 (configuration not stated)	inactive: -0.367	inactive: 2.57	inactive: -1.44
Cc1ccc2c(c1)CC(=O)c1cc(C(C)C(=O)O)ccc1O2 (configuration not stated) [Bermoprofen]	inactive: 0.00202	inactive: 3.75	inactive: 0.81
CCN(CC)c1ccc(C(=C2C=CC(=[N+](CC)CC)C=C2)c2ccc(S(=O)(=O)[O-])cc2S(=O)(=O)[O-])cc1	inactive: -0.146	inactive: -0.675	inactive: -0.87
O=C(/C=C/c1cccc(S(=O)(=O)Nc2ccccc2)c1)NO [belinostat]		active: 9.73	
O=C(/C=C/c1cccc(S(=O)(=O)Nc2ccccc2)c1)NO [Belinostat (PXD101)]	inactive: 1.87		active: 22.1
COc1ccc(-n2[nH]c3c4c(ncc3c2=O)CCCCC4)cc1	inactive: -1.45	inactive: -2.31	inactive: 2.98
COCCNCC(O)COc1ccc2c(c1)CCC(=O)N2 (configuration not stated)	inactive: 0.329	inactive: -0.263	inactive: 3.73
OCCOCCOc1ccc(/C(=C(\CCCl)c2ccccc2)c2ccccc2)cc1	inactive: -2.41	inactive: -0.673	inactive: 1.42
COCCNCc1ccc(-c2cc3nccc(Oc4ccc(NC(=O)C5(C(=O)Nc6ccc(F)cc6)CC5)cc4F)c3s2)nc1	inactive: -1.19	inactive: -2.63	inactive: 0.851
COc1ccc(/C=C/CCCCOc2cccc(OCCCCC(=O)O)c2CCC(=O)O)cc1	inactive: -0.341	inactive: -1.49	inactive: -0.244
CN(C)CCc1c[nH]c2ccc(CS(=O)(=O)N3CCCC3)cc12 [Almotriptan Malate]	inactive: -0.0981	inactive: -0.905	inactive: -0.914
O=C(N[C@H]1CCS[C@H]2CCC[C@@H](C(=O)O)N2C1=O)[C@H](S)Cc1ccccc1 [Omapatrilat]	inactive: -0.779	inactive: -0.933	inactive: 0.0277
Cc1cc(=O)n(-c2ccccc2)n1C [Phenazone]	inactive: -1.71	inactive: 1.08	inactive: 1.67
CCc1c(C(=O)c2cc(C)cc(C)c2)n(CC2CC=CC2)c(=O)[nH]c1=O	inactive: -0.304	inactive: 0.179	inactive: -1.02
CC(C)OC(=O)CCC/C=C\C[C@@H]1[C@@H](CC[C@@H](O)CCc2ccccc2)[C@H](O)C[C@@H]1O	inactive: -1.28	inactive: -1.12	inactive: 1.54
O=C(O)c1cccnc1 [niacin, controlled-release]		inactive: -1.35	
O=C(O)c1cccnc1 [Nicotinic Acid59-67-6]	inactive: -0.536		inactive: 2.72
CC(C)=CCc1ccc(C(C)C(=O)O)cc1 (configuration not stated)	inactive: -0.172	inactive: 3.1	inactive: 1.94
CS(=O)(=O)c1ccc(C(=O)N2CCN(c3ccc(OC4CCN(C5CCC5)CC4)cc3)CC2)cc1	inactive: -1.2	inactive: -1.08	inactive: -1.13
CN/C1=N/N=C(C)/C(C)=N/N=C(/NC)[S][Cu][S]1	inactive: 2.71	inactive: 0.727	inactive: 0.149
C[C@@H](N[C@H]1CCN(c2ccc(CC(=O)O)cc2)C1)c1cccc2ccccc12	inactive: -1.15	inactive: -0.259	inactive: -1.31
COC(=O)c1ccc(OC(=O)CCCCCCC(=O)NO)cc1 [Methylparaben suberohydroxamic acid phenyl ester]	inactive: 0.0516	inactive: 0.131	inactive: -0.278
